Experimental data taken from patent publication US20220304911A1, “ORAL CARE PRODUCT WITH CANNABINOID COMPOUNDS” (Demetrix, Inc., priority 2021, published 2022).
Some entries share one result that the patent states for a list of compounds. For at least one compound, name, drawing or mass did not settle the structure.

What follows are compounds tested on Streptococcus mutans (S. mutans) (assay: minimum inhibitory concentration (MIC) assay against S. mutans). Settings: summary statement in the description.
Type: cell-based
Protocol: As used herein “minimum inhibitory concentration” or “MIC” refers to the lowest concentration (in μg/mL) of an antibiotic that inhibits the growth of a given strain of bacteria.
To determine the ability of the cannabinoid compounds described herein to reduce, or eliminate, S. mutans, a minimum inhibitory concentration (“MIC”) assay was performed. The assay was performed by Charles River Discovery Research Services UK Limited (Portishead, United Kingdom) in accordance with industry standards.

Compound | minimum inhibitory concentration (MIC) against S. mutans
CCCCCc1cc2c(c(O)c1C(=O)O)C=CC(C)(CCC=C(C)C)O2 (stereo not drawn) [CBCA, cannabichromenic acid] | greater than 25 μg/mL
C=C(C)[C@@H]1CCC(C)=C[C@H]1c1c(O)cc(C)cc1O [CBD-C1] | greater than 25 μg/mL
C=C(C)[C@@H]1CCC(C)=C[C@H]1c1c(O)cc(CC)cc1O [CBD-C2, cannabidiol ethyl] | less than 25 μg/mL
C=C(C)[C@@H]1CCC(C)=C[C@H]1c1c(O)cc(CCCC)cc1O [CBD-C4, cannabidibutol] | less than 25 μg/mL
C=C(C)[C@@H]1CCC(C)=C[C@H]1c1c(O)cc(CCC)c(C(=O)O)c1O [CBDVA, cannabidivarinic acid] | less than 25 μg/mL
CCCCc1cc(O)c(CC=C(C)CCC=C(C)C)c(O)c1 [CBG-C4, cannabigerol butyl] | less than 25 μg/mL
CCCCc1cc(O)c(C/C=C(\C)CCC=C(C)C)c(O)c1C(=O)O [CBGA-C4, cannabigerolic acid butyl] | less than 25 μg/mL
CCCc1cc(O)c(C/C=C(\C)CCC=C(C)C)c(O)c1 [CBGV, cannabigerovarin] | less than 25 μg/mL
CCCc1cc(O)c(C/C=C(\C)CCC=C(C)C)c(O)c1C(=O)O [CBGVA, cannabigerovarinic acid] | greater than 25 μg/mL
CCCCCc1cc2c(c(O)c1C(=O)O)C1C3C(CCC3(C)O2)C1(C)C (stereo not drawn) [CBLA, cannabicyclolic acid] | greater than 25 μg/mL
CCCCCc1cc2c(c(O)c1C(=O)O)-c1cc(C)ccc1C(C)(C)O2 [CBNA, cannabinolic acid] | greater than 25 μg/mL
(+)-cannabidiol [(+)-CBD] | less than 25 μg/mL
